In US20060168698A1:
Numbering of substitutions follows the chain as printed. These are yes or no findings as the source states them, for the method shown. Binding seen in cells or lysates may run through a third protein. Some binding calls cover weakened binding; strength is not graded here. Values belong to the binder of their own block, whether it stands above or below them.

The chains behind the UniProt entries cited, without tags or fusion partners. Where a name states a change or a piece, a line headed by the entry shows the natural chain unless it says otherwise.
UniProt O81223: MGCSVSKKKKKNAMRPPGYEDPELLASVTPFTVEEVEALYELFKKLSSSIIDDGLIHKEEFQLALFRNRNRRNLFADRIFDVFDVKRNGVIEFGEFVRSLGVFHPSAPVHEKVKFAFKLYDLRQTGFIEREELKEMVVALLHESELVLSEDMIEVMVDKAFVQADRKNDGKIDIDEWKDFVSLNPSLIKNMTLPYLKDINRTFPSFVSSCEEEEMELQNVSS

Columns and labels:
[1] = target: GST-SOS3 fusion protein (Arabidopsis thaliana) (UniProt O81223); assay: GST-SOS3 pull-down from wild-type and WT/T/DSOS2 transgenic plant extracts, anti-SOS2 immunoblot
[2] = target: GST-SOS3 fusion protein (Arabidopsis thaliana) (UniProt O81223); assay: GST-SOS3 pull-down from sos2-2 and sos3-1 mutant and transgenic plant extracts, anti-SOS2 immunoblot
[3] = target: GST-SOS3 fusion protein (Arabidopsis thaliana) (UniProt O81223); assay: GST-SOS3 pull-down on glutathione-Sepharose beads from plant extracts, anti-SOS2 immunoblot

binding [1]: binds
binding [2]: binds
binding [3]: binds
B1: T/DSOS2 (SOS2 protein kinase with the Thr168-to-Asp change in the activation loop) (enzyme)
chain: MTKKMRRVGKYEVGRTIGEGTFAKVKFARNTDTGDNVAIKIMAKSTILKNRMVDQIKREISIMKIVRHPNIVRLYEVLASPSKIYIVLEFVTGGELFDRIVHKGRLEESESRKYFQQLVDAVAHCHCKGVYHRDLKPENLLLDTNGNLKVSDFGLSALPQEGVELLRDTCGTPNYVAPEVLSGQGYDGSAADIWSCGVILFVILAGYLPFSETDLPGLYRKINAAEFSCPPWFSAEVKFLIHRILDPNPKTRIQIQGIKKDPWFRLNYVPIRAREEEEVNLDDIRAVFDGIEGSYVAENVERNDEGPLMMNAFEMITLSQGLNLSALFDRRQDFVKRQTRFVSRREPSEIIANIEAVANSMGFKSHTRNFKTRLEGLSSIKAGQLAVVIEIYEVAPSLFMVDVRKAAGETLEYHKFYKKLCSKLENIIWRATEGIPKSEILRTITF

binding [1]: binds
binding [2]: binds
binding [3]: binds
B2: SOS2 (native, wild-type SOS2 protein kinase) (enzyme)
chain: B1 chain with D168T
